Values of other authors, collected in patent US20260184702A1, “SYNTHESIS, PHARMACOLOGY AND USE OF NEW WATER-SOLUBLE AND SELECTIVE FMS-LIKE TYROSINE KINASE3 (FLT3) INHIBITORS” (Universität Regensburg, priority 2022, published 2026).
At least one structure is not confirmed: it was looked up by name or label, or the drawing left a doubt.

Test system: MOLM-13 (acute myeloid leukemia)
Conditions: Sellmer et al. 2020; cited from earlier work

Question: With `CO[C@@H]1[C@H](N(C)C(=O)c2ccccc2)C[C@H]2O[C@]1(C)n1c3ccccc3c3c4c(c5c6ccccc6n2c5c31)C(=O)NC4` [Midostaurin, reference compound] as the molecule, how does the IC50 read?
Answer: 0.014 µM
